“And” between values parts separate entries of the source, which are not always exact repeats. Equal values may be shown once. About 3,700 (1.2%) of roughly 300,000 compounds were called active. The shares of active, inactive and inconclusive entries below differ from those in the screen. Calls come from the whole dose curve; tested in HEK293 cells. A potency beside an inconclusive call is a rough fit, not a confirmed value.
test: qHTS for Inhibitors of binding or entry into cells for Lassa Virus; settings: Lassa virus pseudotype entry inhibition, cell reporter; activity change, negative = inhibition: at 37.9 µM (top of the series) unless noted; note: nearly all actives have a fitted effect of over 50% in size
% is set by controls: 0 for no effect and ±100 for the full control effect; potency is the fitted concentration of half-maximal effect.

Row | SMILES | activity change, negative = inhibition | Potency
1 | COc1ccc(/C=C2\SC(=N)N(c3nccs3)C2=O)cc1OC | inactive: -24.3% [at 46.1 µM] | 
2 | Cc1ccc(C(=O)CCC2CCCC2=O)cc1 (stereo unspecified) |  | inconclusive: 7.94 µM [activator, partial curve, poor fit]
3 | CN(C)S(=O)(=O)c1cccc(C(=O)NC2CCSc3ccccc32)c1 (stereo unspecified) | inactive: 2.43% [at 46.1 µM] | 
4 | CCCCN(C(=O)CCC(=O)Nc1cc(C)on1)C(C(=O)NC1CCCC1)c1ccccc1OCC (stereo unspecified) |  | inconclusive: 35.5 µM [inhibitor, single point]
5 | Cc1ccc(SCc2cn3cc(Cl)ccc3n2)cc1 |  | inconclusive: 35.5 µM [activator, single point]
6 | O=C(COC(=O)C1(c2ccc(F)cc2)CCCC1)N1CCc2ccccc21 |  | inconclusive: 32.6 µM [inhibitor, single point]
7 | CCc1cccc(NC(=O)c2ccc3c(=O)n4nc(Nc5ccccc5OC)sc4nc3c2)c1 |  | inconclusive: 5.62 µM [inhibitor, single point]
8 | C/C(N)=C(/C#N)C(=O)CSc1nnc(-c2ccc(OC(F)F)cc2)o1 |  | inconclusive: 0.461 µM [activator, partial curve, poor fit]
9 | CCCN(CCC)CCNC(=O)c1cc(Sc2ccc(Cl)cc2)nc2ccccc12 |  | inconclusive: 6.31 µM [inhibitor, single point]
10 | CCOC(=O)c1c(NC(=O)c2cc3ccccc3c(=O)o2)sc2c1CCCC2 | inactive: -3.29% [at 46.1 µM] | 
11 | CCC(C)(C)c1ccc(Oc2cccc(C(=O)O)c2)cc1 | inactive: 17.4% [at 46.1 µM] | 
12 | CC(=O)Oc1ccc(C(=O)Nc2cccc(C(=O)c3cccc(NC(=O)c4ccc(OC(C)=O)cc4)c3)c2)cc1 |  | inconclusive: 13 µM [inhibitor, partial curve]
13 | Cc1noc(C)c1S(=O)(=O)NCCc1csc2nc(-c3ccc(F)cc3)nn12 | inactive: -13.9% [at 46.1 µM] | 
14 | COc1ccc(CC(=O)NNC(=O)c2cc(C)oc2C)cc1OC |  | inconclusive: 2.82 µM [activator, single point]
15 | COc1ccccc1NC1=C(Cl)C(=O)N(C2CCCCC2)C1=O | inactive: 0.82% | 
16 | Cc1cc(C)n(-c2nc(NCCCN(C)C)c3c4c(sc3n2)CCCC4)n1 |  | inconclusive: 35.5 µM [inhibitor, single point]
17 | CC(C)(C)c1csc(SCC(=O)Nc2ccc(Cl)cn2)n1 |  | inconclusive: 29.1 µM [inhibitor, single point]
18 | Cc1cc(S(=O)(=O)NCC(c2ccc(F)cc2)N2CCN(C)CC2)ccc1F (stereo unspecified) |  | inconclusive: 11.2 µM [inhibitor, partial curve, poor fit]
19 | CCSC1=NC2(CCN(C(=O)NC3CCCCC3)CC2)N=C1c1ccc(C)c(C)c1 |  | inconclusive: 6.31 µM [inhibitor, single point]
20 | O=c1c2ccccc2oc2cc(OCc3cccc(F)c3)cc(O)c12 | inactive: 21.5% | 
21 | O=C(COc1ccc(/C=N/NC(=O)CSCc2ccc([N+](=O)[O-])cc2)cc1)NCc1ccco1 |  | inconclusive: 29.1 µM [inhibitor, single point]
22 | Cc1occc1C(=O)NNC(=S)Nc1ccccc1 | inactive: 17.8% | 
23 | Cc1ccc(-c2noc(CSc3nnc(Cc4ccccc4)n3-c3ccc(Cl)cc3)n2)cc1 |  | active: 1.64 µM
24 | COc1cccc(N2CCN(c3ncc4c(n3)CCN(Cc3ccc(Br)cc3)C4)CC2)c1 |  | inconclusive: 2.82 µM [inhibitor, single point]

Sorted by count of non-hydrogen atoms (smallest number first): some entries from above.
Row | SMILES | activity change, negative = inhibition | Potency
5 | Cc1ccc(SCc2cn3cc(Cl)ccc3n2)cc1 |  | inconclusive: 35.5 µM [activator, single point]
11 | CCC(C)(C)c1ccc(Oc2cccc(C(=O)O)c2)cc1 | inactive: 17.4% [at 46.1 µM] | 
3 | CN(C)S(=O)(=O)c1cccc(C(=O)NC2CCSc3ccccc32)c1 (stereo unspecified) | inactive: 2.43% [at 46.1 µM] | 

Remaining list, next part

Row | SMILES | activity change, negative = inhibition | Potency
25 | Clc1ccc(Sc2ccc(/C=N/n3cnnc3)o2)cc1 | inactive: -4.54% | 
26 | CN(C)C(CNC(=S)Nc1cccc(Cl)c1)c1ccccc1 (stereo unspecified) |  | inconclusive: 0.891 µM [inhibitor, full curve, poor fit]
27 | CCCCc1c(C)nc2ccc(C(=O)OCC)cc2c1Cl | inactive: 2.05% | 
28 | COc1ccc(NC(=O)c2coc3ccccc23)cc1OC |  | inconclusive: 25.9 µM [activator, single point]
29 | c1ccc(Nc2nc(-c3ccccc3)ns2)cc1 |  | inconclusive: 0.562 µM [activator, full curve, poor fit]
30 | O=C1c2ccccc2CC1Sc1nnc(-c2ccncc2)o1 (stereo unspecified) | inactive: 0.82% | 
31 | COc1ccc(C2=NN(C(=O)CCC(=O)O)C(c3ccc(F)cc3)C2)cc1 (stereo unspecified) | inactive: 21.4% [at 46.1 µM] | 
32 | O=C(CSc1ccc(-c2ccc3c(c2)OCO3)nn1)Nc1nccs1 |  | inconclusive: 35.5 µM [inhibitor, single point]
33 | COc1ccc(CN2CCN(Cc3cccc(Oc4ccccc4)c3)CC2)c(OC)c1OC |  | inconclusive: 20 µM [inhibitor, single point]
34 | COc1ccc(-c2nc(SC(C)C(=O)Nc3ccc(NC(C)=O)cc3)n[nH]2)cc1 (stereo unspecified) |  | inconclusive: 2.51 µM [inhibitor, partial curve, poor fit]
35 | Cc1cc(/C=N/N2CCN(C)CC2)c(C)n1-c1ccccc1F | inactive: 3.03% | 
36 | CCC(=Nc1ccc(OC)cc1OC)c1c(O)n(C2CCCCC2)c(=O)[nH]c1=O |  | inconclusive: 11.6 µM [inhibitor, partial curve]
37 | N=C(N)c1c(O)n(C2CCCCC2)c(=O)n(C2CCCCC2)c1=O |  | inconclusive: 35.5 µM [inhibitor, single point]
38 | COc1ccc(-c2csc(-c3cccs3)n2)c(OC)c1 |  | inconclusive: 7.94 µM [inhibitor, partial curve]
39 | COc1ccccc1-c1cc(C(=O)NC2CCCC2)no1 |  | inconclusive: 1.58 µM [inhibitor, full curve, poor fit]
40 | COc1ccc(C(=O)NCCCCc2ccccc2)cc1 | inactive: -25.3% | 
41 | CCn1cc(CN2CCCC(C(=O)c3ccc(-c4ccccc4)cc3)C2)cn1 (stereo unspecified) |  | inconclusive: 10 µM [inhibitor, partial curve, poor fit]
42 | CN(Cc1ccco1)C(=O)CSc1nc(C2CC2)n(-c2ccccc2)n1 | inactive: 3.81% | 
43 | Cc1ccc(OCC(=O)Nc2ccc3c(c2)OCCO3)cc1C |  | inconclusive: 14.1 µM [inhibitor, single point]
44 | COc1ccc2[nH]c(=O)c(CNc3ccccc3)cc2c1 |  | inconclusive: 35.5 µM [inhibitor, single point]
45 | CC(C)n1c(SCc2cc(=O)[nH]c3ccccc23)nc2c1c(=O)n(C)c(=O)n2C |  | inconclusive: 3.26 µM [activator, partial curve, poor fit]
46 | CSc1nccc(N2CCN(c3ccc(F)cc3)CC2)n1 | inactive: 1.88% | 
47 | Cc1ccc(-c2csc(NC(=O)C[n+]3cc(-c4ccccc4)n4c3CCC4)n2)cc1 |  | inconclusive: 14.1 µM [inhibitor, single point]
48 | Fc1ccc(-c2nnc(CN3CCC(c4nc5ccccc5s4)CC3)o2)cc1 |  | inconclusive: 23.1 µM [inhibitor, single point]

Excerpt, compounds 32–33
Row | SMILES | activity change, negative = inhibition | Potency
32 | O=C(CSc1ccc(-c2ccc3c(c2)OCO3)nn1)Nc1nccs1 |  | inconclusive: 35.5 µM [inhibitor, single point]
33 | COc1ccc(CN2CCN(Cc3cccc(Oc4ccccc4)c3)CC2)c(OC)c1OC |  | inconclusive: 20 µM [inhibitor, single point]

More results

Row | SMILES | activity change, negative = inhibition | Potency
49 | COc1ccc(C2=Nc3cc(C)ccc3OC2)cc1 |  | active: 10 µM
50 | CCN(CCCNC(=O)c1cc2c(=O)[nH]c3ccc(C)cc3c2s1)Cc1ccccc1 |  | inconclusive: 17.8 µM [inhibitor, single point]
51 | Cc1ccc(NC(=O)c2ccc(S(=O)(=O)N3CCCC3)cc2)cc1 |  | inconclusive: 11.2 µM [inhibitor, partial curve, poor fit]
52 | O=C(NC1CCN(C(=S)NCc2ccco2)CC1)C1CCCCC1 | inactive: 14.2% | 
53 | Cc1ccc(CSCC(=O)N/N=C/c2ccc(OCC(=O)Nc3ccc(C)cc3)cc2)cc1 |  | inconclusive: 35.5 µM [inhibitor, single point]
54 | O=C(/C=C1\NCC2c3ccccc3CCN2C1=O)c1ccccc1 (stereo unspecified) |  | inconclusive: 11.2 µM [inhibitor, single point]
55 | O=C(Cc1ccccc1)Nc1nc(=O)c2ccccc2s1 | inactive: -6.88% | 
56 | COc1ccc(Br)cc1CN1CCN(C(=O)c2cccc(F)c2)CC1 | inactive: -10.7% [at 46.1 µM] | 
57 | Cc1cccn2c1nc(=S)n2C(=O)c1ccco1 |  | inconclusive: 1.46 µM [activator, full curve]
58 | NC[C@H](O)c1ccc(O)c(O)c1 |  | inconclusive: 35.3 µM [inhibitor, single point] and inconclusive: 2.06 µM [inhibitor, partial curve, poor fit]
59 | COc1ccc2cc(S(=O)(=O)NCc3cccnc3)ccc2c1 | inactive: -24.2% | 
60 | O=C(O)c1cccc(NC(=S)N/N=C/c2c[nH]c3ccccc23)c1 |  | inconclusive: 3.98 µM [inhibitor, full curve]
61 | COc1ccc(N2C(=O)c3ccccc3NC2(C)C)cc1 |  | inconclusive: 5.62 µM [inhibitor, partial curve, poor fit]
62 | COc1cc(C2C(C(=O)c3cccs3)=C(O)C(=O)N2CCN2CCOCC2)ccc1OCCC(C)C (stereo unspecified) | inactive: -8.18% [at 46.1 µM] | 
63 | CC(=Nc1ccc(S(N)(=O)=O)cc1)c1c(O)[nH]c2ccccc12 |  | inconclusive: 1.58 µM [activator, full curve]
64 | O=c1cc(C(Cl)(Cl)Cl)oc2c1ccc1ccccc12 |  | inconclusive: 23.1 µM [inhibitor, single point]
65 | O=C(NCCC1=CCCCC1)C1CCN(S(=O)(=O)c2ccccc2C(F)(F)F)CC1 | inactive: 0.006% [at 46.1 µM] | 
66 | CCOc1ccc(-n2c(SC(C)C(=O)OC)nc3c([nH]c4ccccc43)c2=O)cc1 (stereo unspecified) |  | inconclusive: 4.47 µM [inhibitor, full curve, poor fit]
67 | Cc1cccc(N2N=C(C(=O)Nc3ccc(Cl)c(S(=O)(=O)N4CCOCC4)c3)CCC2=O)c1 |  | inconclusive: 39.8 µM [inhibitor, partial curve, poor fit]
68 | Cc1ccc(OC(C)C(=O)NCC2(N3CCOCC3)CCCCC2)cc1C (stereo unspecified) | inactive: 15.6% [at 46.1 µM] | 
69 | CCCCNS(=O)(=O)c1ccc(NC(=O)C2CCCO2)cc1 (stereo unspecified) | inactive: -6.79% | 
70 | Cc1c(C(=O)NC2CCN(Cc3ccccc3)C2)oc2c(Cl)cccc12 (stereo unspecified) |  | active: 10 µM
71 | COc1ccc(-n2nc(C(=O)NCC(=O)N3CCCC(C)C3)c3ccccc3c2=O)cc1Cl (stereo unspecified) |  | inconclusive: 10 µM [inhibitor, partial curve, poor fit]
